In patent publication US20070004620A1, “Fp receptor antagonists or pgf2 alpha antagonists for treating pathological conditions of the uterus” (priority 2002, published 2007):
For at least one compound, name, drawing or mass did not settle the structure.

Tested on: Ishikawa cells
Experiment: Proliferation assay (BrdU incorporation ELISA) in Ishikawa cells
Assay type: cell-based, human
Conditions: PD98059 50 μM, no PGF2α
Experimental: Proliferation of Ishikawa cells was determined using a BrdU incorporation ELISA (Roche Diagnostics GmbH, Mannheim, Germany). Briefly, Ishikawa cells were seeded at 5×10^3 cells per well in a 96-well plate and allowed to adhere overnight. Cells were next starved for 24 hr with indomethacin 1.5 μg/ml before 24 h PGF2α treatment (1 nM-1 μM) in serum-free medium containing indomethacin. Inhibitors were added to cells for 60 min before PGF2α with the control well receiving the same concentration of vehicle. Following 24 h treatment, cells were labelled with BrdU for 4 h, then fixed and assayed for BrdU incorporation using standard immunohistochemical techniques. Results were plotted as percentages of untreated cells.

COc1cccc(-c2cc(=O)c3ccccc3o2)c1N [PD98059]
basal proliferation after pre-treatment with inhibitor: 84.0×5.8%
